The values below come from PMC12536462.

Amino acid sequences for entries named in this document (tags omitted).
UniProt P62960: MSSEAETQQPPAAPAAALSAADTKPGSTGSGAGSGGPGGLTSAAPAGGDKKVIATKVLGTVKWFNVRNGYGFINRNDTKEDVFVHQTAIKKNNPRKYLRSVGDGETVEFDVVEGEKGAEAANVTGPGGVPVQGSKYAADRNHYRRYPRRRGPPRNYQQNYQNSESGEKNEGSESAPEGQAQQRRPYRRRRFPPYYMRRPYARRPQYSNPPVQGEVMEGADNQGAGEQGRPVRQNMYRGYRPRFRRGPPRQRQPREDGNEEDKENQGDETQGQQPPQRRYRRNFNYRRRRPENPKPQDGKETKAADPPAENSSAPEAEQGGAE

The target in experiment [1] is GFP-YBX1 (Y-box binding protein 1) (mouse) (UniProt P62960). The experiment in a line: co-IP; HEK-293T or F9 EC cells cotransfected with p3×Flag-CMV-PGC7 and pEGFP-YBX1 for 48 h; anti-Flag or anti-GFP antibody for capture, normal mouse IgG as negative control; western blot. (Immunoblotting shows a protein as a band on a membrane.)
The target of experiment [2] is YBX1 (Y-box binding protein 1), endogenous in F9 EC cells (mouse (endogenous in F9 EC cells)) (UniProt P62960). Briefly: co-IP; endogenous proteins, F9 EC cells at 90% confluence; rabbit anti-YBX1 antibody for capture, rabbit IgG as negative control; western blot with PGC7-specific antibodies.

These are yes or no findings as the source states them, for the method shown. In cells and extracts the contact can be indirect. Some results given as binding are weak or reduced against the parent protein; the word gives no strength. For some assays here: Sequences can lack the tags named with a protein.

B1: Flag-PGC7 (primordial germ cell 7) (protein, UniProt Q8QZY3 1-150)
chain: MEEPSEKVDPMKDPETPQKKDEEDALDDTDVLQPETLVKVMKKLTLNPGVKRSARRRSLRNRIAAVPVENKSEKIRREVQSAFPKRRVRTLLSVLKDPIAKMRRLVRIEQRQKRLEGNEFERDSEPFRCLCTFCHYQRWDPSENAKIGKN
On to B1, for which, in experiment [1], the binding entry is listed as “binds”.

B2: PGC7 (primordial germ cell 7), endogenous in F9 EC cells (protein, UniProt Q8QZY3 1-150)
chain: MEEPSEKVDPMKDPETPQKKDEEDALDDTDVLQPETLVKVMKKLTLNPGVKRSARRRSLRNRIAAVPVENKSEKIRREVQSAFPKRRVRTLLSVLKDPIAKMRRLVRIEQRQKRLEGNEFERDSEPFRCLCTFCHYQRWDPSENAKIGKN
For B2, the binding result in experiment [2] is given as “binds”.
